Laboratory results: patent publication US20230084839A1, “ACTIVE AGENTS AGAINST CORONAVIRUS INFECTIONS AND DISEASES CAUSED THEREBY” (Eberhard Karls Universität Tübigen Medizinische Fakultät, priority 2020, published 2023)
At least one structure is not confirmed: it was looked up by name or label, or the drawing left a doubt.

System: SARS-CoV-2
Assay type: cell-based
Settings: Data series 1, Calu3 cells, 10 and 1 μM, compared with mock and infected

Structure (SMILES): CCN1CCN(Cc2ccc(Nc3ncc(F)c(-c4cc(F)c5nc(C)n(C(C)C)c5c4)n3)nc2)CC1 [abemaciclib]
- reduction of the cytopathic effect caused by viral infection: no inhibitory effects
